Test results: paper PMC5038621
The exact form of at least one protein or probe is not confirmed. At least one verdict rests on a figure or table, not on a statement of the authors.

Experiments:
[1] = test system: human alpha-thrombin (human); experiment: sandwich electrochemical aptasensor (differential pulse ASV), detection strand; settings: thrombin captured on Apt1-NH2, linear 1 fM-10 nM, LOD 0.9 fM (not a Kd); 50 mM Tris-HCl, 100 mM NaCl, 5 mM KCl, 1 mM MgCl2, 5 mM CaCl2, pH 7.4; BSA-blocked electrode; 37 C, 2 h per binding step; commercial protein; label: CdS quantum dot conjugate; folded or branched DNA
[2] = test system: human alpha-thrombin (human); experiment: sandwich electrochemical aptasensor (differential pulse ASV), capture strand; settings: with Apt2-CdS as detection strand, linear 1 fM-10 nM, LOD 0.9 fM (not a Kd); 5'-NH2-(CH2)6; 50 mM Tris-HCl, 100 mM NaCl, 5 mM KCl, 1 mM MgCl2, 5 mM CaCl2, pH 7.4; BSA-blocked electrode; 37 C, 2 h per binding step; commercial protein; folded or branched DNA

Sequence	binding result [1]	binding result [2]
TCTCTCTCTCTCTCTCTCTCAGTCCGTGGTAGGGCAGGTTGGGGTGACT [Aptamer-II (Apt2)]	binds	
TTTTTTTTTTGGTTGGTGTGGTTGG [Aptamer-I (Apt1-NH2)]		binds
